Assay results taken from PubChem BioAssay AID1439 (NMMLSC, 2008).
Out of some 220,000 compounds screened, about 770 (0.35%) were called active. This list was built around the results that the source calls inconclusive (neither active nor inactive); the mix of calls is not that of the screen. Rule as the data show it: active = binding response below about 49% or above about 150%; inconclusive = no clear call, values can overlap the other calls; inactive = in between.

Sequences of proteins named here, by UniProt entry; tags and fusion partners are left off.
UniProt P09471, whole entry, looked up: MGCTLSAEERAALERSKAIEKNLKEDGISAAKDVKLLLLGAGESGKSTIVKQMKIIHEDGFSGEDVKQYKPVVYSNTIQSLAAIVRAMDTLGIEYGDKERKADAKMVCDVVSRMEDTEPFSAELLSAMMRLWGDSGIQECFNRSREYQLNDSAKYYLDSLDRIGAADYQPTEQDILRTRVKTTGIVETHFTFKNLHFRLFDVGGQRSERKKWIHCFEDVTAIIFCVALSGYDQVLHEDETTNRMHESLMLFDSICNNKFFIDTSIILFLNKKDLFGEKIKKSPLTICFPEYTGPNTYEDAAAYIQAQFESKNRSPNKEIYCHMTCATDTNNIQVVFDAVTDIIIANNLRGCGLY

Molecular target: Guanine nucleotide-binding protein G(o) subunit alpha (Homo sapiens) (UniProt P09471)
Assay: RGS7-Galphao binding modulators, primary screen, biochemical, multiplexed bead flow cytometry (AID 1439);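 also: fluorescent Galphao held in activated GDP-AlF4 state binding bead-coupled RGS7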
Settings: at 10 µM, actives lie on both sides

Compound	binding response (% of control)
COc1ccc(N/C=C(\C2OC(=O)c3ccccc32)[N+](=O)[O-])cc1 (stereo not given)	inconclusive: 113%
Cc1ccc(C(=O)Nn2cnnc2)cc1S(=O)(=O)N1CCOCC1	inconclusive: 97.1%
Brc1cnc2nc[nH]c2c1	inconclusive: 98.8%
Clc1ccc2c(c1)-c1[nH]ncc1CS2	inconclusive: 73.2%
CN(C)c1cc(-c2ccc(C#N)cc2)oc(=O)c1Cl	inconclusive: 170%
O=C(CCCN1C(=O)c2cccnc2C1=O)Nc1ccc(Br)cc1	inconclusive: 88.8%
Cc1cc(NC(=O)CSc2nnc(C3COc4ccccc4O3)n2N)no1 (stereo not given)	inconclusive: 271%
O=C(NCC1CCCN(C(=O)CN2CCCCC2)C1)c1ccccc1Cl (stereo not given)	inconclusive: 81%
Cc1ccc2c(c1)COc1c3ccc(C(=O)NCCO)cc3nn1-2	inconclusive: 99.5%
O=C(CSc1cccc[n+]1[O-])c1cc(Cl)ccc1Cl	inactive: 98.2%
CC(C)c1ccc2[nH]c3c(c2c1)CCC/C3=N\NC(=O)c1ccncc1	inconclusive: 162%
CCOC(=O)c1cccc(NC(=O)C2(S(=O)(=O)c3ccc(Cl)cc3)CC2)c1	inactive: 104%
CCn1cc(C(=O)O)c(=O)c2cc(F)c(N3CCN(C(=S)Nc4ccccc4OC)CC3)cc21	inconclusive: 136%
Cc1cccc(-n2c(O)c(C=Nc3ccccc3O)c3ccccc3c2=O)n1	inconclusive: 157%
C=CCc1cc(OC)ccc1OCCN(C)Cc1ccccc1	inconclusive: 98.8%
CC12CCC(C(=O)Nc3ccccc3Cl)([C@H](Br)C1=O)C2(C)C (stereo not given in full)	inconclusive: 66.6%
COC(=O)c1cc2occc2n1Cc1nc(-c2ccccc2F)oc1C	inconclusive: 233%
CCOc1ccc(S(N)(=O)=O)cc1-c1nc2c(C(C)(C)C)nn(C)c2c(=O)[nH]1	inconclusive: 83.7%
Cc1ccc(N(CCCCN2C(=O)c3ccccc3C2=O)C(=O)c2ccc(Cl)s2)cc1	inactive: 100%
BrC(/C=N/N1CCN(Cc2ccccc2)CC1)=C/c1ccccc1	inconclusive: 71.5%
COCCN(C(=O)CSc1nnc(-c2cccc(C)c2)n1C)c1c(N)n(Cc2ccccc2)c(=O)[nH]c1=O	inconclusive: 109%
O=C(Nc1ccc(NC(=O)c2ccco2)c(Cl)c1)c1ccc2c(c1)OCCO2	inconclusive: 80.6%
NS(=O)(=O)c1ccc(CCNC(=O)CCCOc2ccccc2)cc1	inactive: 105%

Compound	binding response (% of control)
COC(=O)c1ccc(S(=O)(=O)NC(C)(C)C)n1C	inconclusive: 121%
CC1CN(C2=Nc3cccc4cccc2c34)CC(C)O1 (stereo not given)	inconclusive: 112%
CCN(CC)C(=O)c1ccccc1NS(C)(=O)=O	inactive: 95%
Cc1nc2cc(NC(=O)Nc3cccc(F)c3)ccc2n1C	inconclusive: 104%
S=C(NCC1CCCO1)N1CCN(Cc2ccccc2)CC1 (stereo not given)	inactive: 98.6%
COc1cccc(NC(=O)Nc2ccc(C(C)(C)C)cc2)c1	inactive: 92.8%
CCOc1ccc(/C(O)=C2\C(=O)C(=O)N(c3ccc(OC)cc3)C2c2ccccc2[N+](=O)[O-])cc1 (stereo not given)	inconclusive: 145%
Cc1cc(NC(=O)COC(=O)c2ccc(S(=O)(=O)N3CCCC3)cc2)no1	inconclusive: 96.8%
Cc1cc(C(=O)c2ccc(C(C)(C)C)cc2)c(NC(=O)CCl)s1	inactive: 104%
CCOC(=O)CC(=O)CSc1nccc(-c2cccnc2)n1	inconclusive: 123%
CCCCCC(=O)C(=O)c1ccc(O)cc1O	inconclusive: 88.3%
COc1ccc(-n2c(C)nn(CCOc3ccccc3)c2=O)cc1	inconclusive: 114%
Cc1noc(-c2ccc(Cl)cc2)c1C(=O)O/N=C(\N)c1ccc(C(C)(C)C)cc1	inconclusive: 112%
COc1c(C)cc(C(=O)C2CCCN(C(=O)CCCn3cncn3)C2)cc1C (stereo not given)	inconclusive: 110%
Cc1cn(CCC(=O)Nc2ccc(N3CCOCC3)cc2)c2ccccc12	inconclusive: 88%
O=C(O)CCNS(=O)(=O)c1ccc2c(c1)OCCCO2	inconclusive: 104%
COc1cccc(Oc2c(C)oc3c(CN4CCCC4)c(O)ccc3c2=O)c1	inconclusive: 107%
COc1ccc(C(=O)NCc2nnc(SCC(=O)Nc3ccccc3OC)n2C)cc1	inconclusive: 92.4%
CCc1ccc(N/C(N)=N/c2nc(CSc3ncccn3)cc(=O)[nH]2)cc1	inactive: 102%
O=S1(=O)CCN(Cc2ccccn2)CC1	inconclusive: 97.1%
CCc1cccc(C)c1N1C(=O)CC(C)(C)CC1=O	inconclusive: 90.1%
CCC1=C(OC(=O)N(CC)CC)N2C(=O)OC(=NCC(=O)OC)[C@]2(Cc2ccccc2)[C@H]2C1=CC[C@H]1C(=O)N(CC(=O)OC)C(=O)[C@H]12	inconclusive: 84.4%

Copied from the list.
binding response (% of control) with COc1ccc(N/C=C(\C2OC(=O)c3ccccc32)[N+](=O)[O-])cc1 (stereo not given) is entered as inconclusive: 113%
binding response (% of control) with Cc1ccc(C(=O)Nn2cnnc2)cc1S(=O)(=O)N1CCOCC1 is entered as inconclusive: 97.1%
